From paper PMC9186069

Molecular target: full-length B. miyamotoi FbpA-R264A-K343A (Borrelia miyamotoi strain FR64b)
Experiment: far-Western, overlay or dot blot; B. burgdorferi B314 whole-cell lysates (2.5 x10^7 cell equivalents) resolved by SDS-PAGE, on PVDF; probed with 20 μg zymogen or active C1r for 1 hour; detected with goat anti-human C1r; only the binder purified

B1: C1r zymogen (enzyme, UniProt P00736 18-705)
chain: SIPIPQKLFGEVTSPLFPKPYPNNFETTTVITVPTGYRVKLVFQQFDLEPSEGCFYDYVKISADKKSLGRFCGQLGSPLGNPPGKKEFMSQGNKMLLTFHTDFSNEENGTIMFYKGFLAYYQAVDLDECASRSKSGEEDPQPQCQHLCHNYVGGYFCSCRPGYELQEDTHSCQAECSSELYTEASGYISSLEYPRSYPPDLRCNYSIRVERGLTLHLKFLEPFDIDDHQQVHCPYDQLQIYANGKNIGEFCGKQRPPDLDTSSNAVDLLFFTDESGDSRGWKLRYTTEIIKCPQPKTLDEFTIIQNLQPQYQFRDYFIATCKQGYQLIEGNQVLHSFTAVCQDDGTWHRAMPRCKIKDCGQPRNLPNGDFRYTTTMGVNTYKARIQYYCHEPYYKMQTRAGSRESEQGVYTCTAQGIWKNEQKGEKIPRCLPVCGKPVNPVEQRQRIIGGQKAKMGNFPWQVFTNIHGRGGGALLGDRWILTAAHTLYPKEHEAQSNASLDVFLGHTNVEELMKLGNHPIRRVSVHPDYRQDESYNFEGDIALLELENSVTLGPNLLPICLPDNDTFYDLGLMGYVSGFGVMEEKIAHDLRFVRLPVANPQACENWLRGKNRMDVFSQNMFCAGHPSLKQDACQGDSGGVFAVRDPNTDRWVATGIVSWGIGCSRGYGFYTKVLNYVDWIKKEMEEED
Q: With B1 as the binder, how does the binding read?
A: no binding

Results are given in words; binding and its absence hold for the method and conditions named.
